± gives the standard deviation of the averaged measurements. The list shows a part of the results, in another mix than the full data.
How the values were obtained:
Test in all cases: NP40-soluble protein abundance relative to vehicle (solubility fold change) (ratio); higher = more soluble protein in presence of ATP
ATN1 = molecular target: T1, ATN1 (UniProt P54259)
T1 sequence (whole entry): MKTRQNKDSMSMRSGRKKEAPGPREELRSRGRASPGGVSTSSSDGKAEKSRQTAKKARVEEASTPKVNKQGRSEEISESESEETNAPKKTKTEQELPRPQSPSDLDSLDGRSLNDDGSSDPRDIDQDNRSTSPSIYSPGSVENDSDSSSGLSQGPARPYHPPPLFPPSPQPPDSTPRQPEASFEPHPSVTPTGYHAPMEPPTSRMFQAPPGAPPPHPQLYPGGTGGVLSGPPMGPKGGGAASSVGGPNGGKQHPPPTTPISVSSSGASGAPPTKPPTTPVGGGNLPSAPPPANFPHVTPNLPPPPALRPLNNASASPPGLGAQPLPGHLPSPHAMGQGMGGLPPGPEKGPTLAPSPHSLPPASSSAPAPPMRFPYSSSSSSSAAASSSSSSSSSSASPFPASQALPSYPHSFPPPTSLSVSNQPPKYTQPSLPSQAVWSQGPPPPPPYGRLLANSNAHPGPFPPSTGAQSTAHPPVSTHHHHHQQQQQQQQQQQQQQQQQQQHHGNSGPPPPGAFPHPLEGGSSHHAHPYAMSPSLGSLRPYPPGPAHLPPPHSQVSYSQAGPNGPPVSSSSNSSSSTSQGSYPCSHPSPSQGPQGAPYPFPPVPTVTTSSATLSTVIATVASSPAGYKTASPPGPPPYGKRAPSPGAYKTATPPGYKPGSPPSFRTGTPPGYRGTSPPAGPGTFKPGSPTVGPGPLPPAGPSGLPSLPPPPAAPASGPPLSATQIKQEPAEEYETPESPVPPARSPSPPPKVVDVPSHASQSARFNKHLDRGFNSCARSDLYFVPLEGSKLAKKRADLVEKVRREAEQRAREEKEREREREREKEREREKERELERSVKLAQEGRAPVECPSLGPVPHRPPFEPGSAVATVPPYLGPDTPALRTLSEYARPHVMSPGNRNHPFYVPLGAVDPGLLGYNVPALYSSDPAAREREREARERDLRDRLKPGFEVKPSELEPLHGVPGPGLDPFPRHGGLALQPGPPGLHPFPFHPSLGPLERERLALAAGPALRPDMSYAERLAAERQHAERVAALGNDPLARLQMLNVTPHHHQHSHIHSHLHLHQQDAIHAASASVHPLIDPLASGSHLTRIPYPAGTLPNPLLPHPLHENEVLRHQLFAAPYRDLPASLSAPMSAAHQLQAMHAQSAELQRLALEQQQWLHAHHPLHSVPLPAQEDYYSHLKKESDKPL
Procedure, shortened: (§1)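 Jurkat crude lysate (Dounce-homogenised) was treated with eight concentrations from 0.1 to 10 mM for 10 min at room temperature, then 3 min at 37 °C. It was solubilised with 0.8% NP40 and benzonase (60 min, 4 °C) and ultracentrifuged, and the supernatant was TMT-labelled for LC-MS/MS. Intensities were vsn-normalised, and the value is the fold change against the NP40-processed vehicle per replicate, from three independent experiments.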

BLVRA = molecular target: T2, BLVRA (UniProt P53004)
T2 sequence (whole entry): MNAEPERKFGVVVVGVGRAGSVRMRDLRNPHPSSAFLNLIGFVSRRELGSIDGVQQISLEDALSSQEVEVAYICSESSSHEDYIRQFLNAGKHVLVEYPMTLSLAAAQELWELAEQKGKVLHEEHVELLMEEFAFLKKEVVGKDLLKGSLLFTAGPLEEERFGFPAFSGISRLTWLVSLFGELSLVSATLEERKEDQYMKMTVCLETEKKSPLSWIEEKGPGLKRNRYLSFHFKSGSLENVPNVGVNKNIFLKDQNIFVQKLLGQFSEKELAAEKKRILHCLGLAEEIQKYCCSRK
Procedure, shortened: as §1

HADHB = molecular target: T3, HADHB (UniProt P55084)
T3 sequence (whole entry): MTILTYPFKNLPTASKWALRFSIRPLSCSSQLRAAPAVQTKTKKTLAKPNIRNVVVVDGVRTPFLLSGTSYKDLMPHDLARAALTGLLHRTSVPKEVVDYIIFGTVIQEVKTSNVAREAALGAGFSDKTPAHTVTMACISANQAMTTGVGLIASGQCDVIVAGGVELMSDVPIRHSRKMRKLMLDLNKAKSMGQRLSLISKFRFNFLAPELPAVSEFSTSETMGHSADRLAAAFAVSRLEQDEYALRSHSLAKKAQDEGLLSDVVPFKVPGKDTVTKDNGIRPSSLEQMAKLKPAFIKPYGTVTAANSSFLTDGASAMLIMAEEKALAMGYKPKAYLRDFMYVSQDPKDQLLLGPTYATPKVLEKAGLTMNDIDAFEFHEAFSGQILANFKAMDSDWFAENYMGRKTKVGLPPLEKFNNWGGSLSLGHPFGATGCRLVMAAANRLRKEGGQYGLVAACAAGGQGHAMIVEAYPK
Procedure, shortened: as §1

PURA = molecular target: T4, PURA (UniProt Q00577)
T4 sequence (whole entry): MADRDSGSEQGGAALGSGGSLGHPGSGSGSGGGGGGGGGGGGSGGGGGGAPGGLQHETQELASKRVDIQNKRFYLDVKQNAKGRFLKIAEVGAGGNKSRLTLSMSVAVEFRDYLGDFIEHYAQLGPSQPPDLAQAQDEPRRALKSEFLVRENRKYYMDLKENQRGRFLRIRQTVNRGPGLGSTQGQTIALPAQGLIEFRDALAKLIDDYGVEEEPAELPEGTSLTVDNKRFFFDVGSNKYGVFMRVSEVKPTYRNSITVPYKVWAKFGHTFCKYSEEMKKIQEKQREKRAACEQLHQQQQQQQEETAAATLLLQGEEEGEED
Procedure, shortened: as §1

SLC12A2 = molecular target: T5, SLC12A2 (UniProt P55011)
T5 sequence (whole entry): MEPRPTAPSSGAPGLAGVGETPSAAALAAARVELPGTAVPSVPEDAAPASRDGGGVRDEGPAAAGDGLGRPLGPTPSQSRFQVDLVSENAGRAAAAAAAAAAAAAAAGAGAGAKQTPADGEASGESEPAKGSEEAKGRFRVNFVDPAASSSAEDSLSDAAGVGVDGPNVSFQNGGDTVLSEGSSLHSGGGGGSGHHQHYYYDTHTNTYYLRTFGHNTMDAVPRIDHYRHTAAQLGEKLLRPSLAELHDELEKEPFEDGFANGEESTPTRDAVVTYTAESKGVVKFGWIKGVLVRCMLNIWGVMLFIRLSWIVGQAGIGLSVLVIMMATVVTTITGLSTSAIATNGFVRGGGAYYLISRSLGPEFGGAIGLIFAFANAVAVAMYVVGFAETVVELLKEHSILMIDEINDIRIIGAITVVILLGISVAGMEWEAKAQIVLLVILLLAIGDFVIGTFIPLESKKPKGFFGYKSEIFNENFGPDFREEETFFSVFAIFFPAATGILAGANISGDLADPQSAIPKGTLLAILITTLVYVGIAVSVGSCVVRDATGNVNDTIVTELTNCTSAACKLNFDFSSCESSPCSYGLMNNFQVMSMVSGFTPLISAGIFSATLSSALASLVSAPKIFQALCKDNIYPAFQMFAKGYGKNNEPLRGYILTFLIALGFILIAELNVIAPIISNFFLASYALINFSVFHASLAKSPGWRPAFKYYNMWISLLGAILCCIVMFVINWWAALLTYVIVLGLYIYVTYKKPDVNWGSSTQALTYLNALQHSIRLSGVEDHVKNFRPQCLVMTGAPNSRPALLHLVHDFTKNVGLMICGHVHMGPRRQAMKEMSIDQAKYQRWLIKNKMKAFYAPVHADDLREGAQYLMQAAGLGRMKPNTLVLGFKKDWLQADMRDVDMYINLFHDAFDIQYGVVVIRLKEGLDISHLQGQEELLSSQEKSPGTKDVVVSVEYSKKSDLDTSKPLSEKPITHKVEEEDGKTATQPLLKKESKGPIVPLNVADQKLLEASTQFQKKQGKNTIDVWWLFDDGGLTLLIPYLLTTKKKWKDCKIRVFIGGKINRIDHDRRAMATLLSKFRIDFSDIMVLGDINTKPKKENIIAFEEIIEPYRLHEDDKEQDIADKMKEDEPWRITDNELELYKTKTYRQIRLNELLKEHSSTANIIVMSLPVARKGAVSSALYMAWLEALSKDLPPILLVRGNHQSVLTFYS
Procedure, shortened: as §1

[1] = molecular target: T6, UniProt P55036 and related entries
T6 sequence (whole entry): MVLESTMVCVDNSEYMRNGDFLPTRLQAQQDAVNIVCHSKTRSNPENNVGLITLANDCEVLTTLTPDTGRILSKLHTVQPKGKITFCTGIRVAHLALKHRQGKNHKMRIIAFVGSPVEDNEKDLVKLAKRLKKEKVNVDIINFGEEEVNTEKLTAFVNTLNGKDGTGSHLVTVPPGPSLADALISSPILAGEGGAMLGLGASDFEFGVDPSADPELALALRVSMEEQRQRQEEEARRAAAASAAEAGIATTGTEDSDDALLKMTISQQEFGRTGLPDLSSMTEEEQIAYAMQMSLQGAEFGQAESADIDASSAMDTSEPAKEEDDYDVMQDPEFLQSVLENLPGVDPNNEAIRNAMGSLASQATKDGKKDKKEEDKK
Procedure, shortened: as §1

[2] = molecular target: T7, UniProt P57768 and related entries
T7 sequence (whole entry): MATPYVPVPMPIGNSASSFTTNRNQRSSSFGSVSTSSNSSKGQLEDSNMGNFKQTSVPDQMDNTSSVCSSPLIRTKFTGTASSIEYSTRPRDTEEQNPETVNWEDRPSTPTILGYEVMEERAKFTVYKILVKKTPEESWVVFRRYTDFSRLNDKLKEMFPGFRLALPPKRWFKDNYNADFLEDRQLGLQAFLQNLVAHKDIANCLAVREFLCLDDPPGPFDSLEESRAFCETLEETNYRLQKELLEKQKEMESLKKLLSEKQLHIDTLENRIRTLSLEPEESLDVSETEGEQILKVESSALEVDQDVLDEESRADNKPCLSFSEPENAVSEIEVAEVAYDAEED
Procedure, shortened: as §1

SMILES: Nc1ncnc2c1ncn2[C@@H]1O[C@H](COP(=O)(O)OP(=O)(O)OP(=O)(O)O)[C@@H](O)[C@H]1O [adenosine triphosphate]
- NP40-soluble protein abundance (ATN1; concentration: 1mM): 0.945 ± 0.11
- NP40-soluble protein abundance (ATN1; concentration: 2mM): 0.952 ± 0.12
- NP40-soluble protein abundance (ATN1; concentration: 4mM): 1.0009 ± 0.00027
- NP40-soluble protein abundance (ATN1; concentration: 6mM): 1.06 ± 0.071
- NP40-soluble protein abundance (ATN1; concentration: 8mM): 0.941 ± 0.042
- NP40-soluble protein abundance (ATN1; concentration: 10mM): 1 ± 0.054
- NP40-soluble protein abundance (BLVRA; concentration: 1mM): 1.01 ± 0.1
- NP40-soluble protein abundance (BLVRA; concentration: 2mM): 0.988 ± 0.095
- NP40-soluble protein abundance (BLVRA; concentration: 4mM): 0.946 ± 0.086
- NP40-soluble protein abundance (BLVRA; concentration: 6mM): 0.927 ± 0.15
- NP40-soluble protein abundance (BLVRA; concentration: 8mM): 0.991 ± 0.087
- NP40-soluble protein abundance (BLVRA; concentration: 10mM): 0.947 ± 0.078
- NP40-soluble protein abundance (HADHB; concentration: 1mM): 0.9862 ± 0.0091
- NP40-soluble protein abundance (HADHB; concentration: 2mM): 0.965 ± 0.029
- NP40-soluble protein abundance (HADHB; concentration: 4mM): 0.932 ± 0.035
- NP40-soluble protein abundance (HADHB; concentration: 6mM): 0.942 ± 0.033
- NP40-soluble protein abundance (HADHB; concentration: 8mM): 0.955 ± 0.052
- NP40-soluble protein abundance (HADHB; concentration: 10mM): 0.966 ± 0.056
- NP40-soluble protein abundance (PURA; concentration: 1mM): 0.964 ± 0.043
- NP40-soluble protein abundance (PURA; concentration: 2mM): 0.935 ± 0.048
- NP40-soluble protein abundance (PURA; concentration: 4mM): 0.923 ± 0.076
- NP40-soluble protein abundance (PURA; concentration: 6mM): 0.935 ± 0.041
- NP40-soluble protein abundance (PURA; concentration: 8mM): 0.913 ± 0.081
- NP40-soluble protein abundance (PURA; concentration: 10mM): 0.923 ± 0.045
- NP40-soluble protein abundance (SLC12A2; concentration: 1mM): 0.947 ± 0.023
- NP40-soluble protein abundance (SLC12A2; concentration: 2mM): 0.9234 ± 0.0085
- NP40-soluble protein abundance (SLC12A2; concentration: 4mM): 0.941 ± 0.033
- NP40-soluble protein abundance (SLC12A2; concentration: 6mM): 0.947 ± 0.058
- NP40-soluble protein abundance (SLC12A2; concentration: 8mM): 0.961 ± 0.023
- NP40-soluble protein abundance (SLC12A2; concentration: 10mM): 0.932 ± 0.023
- NP40-soluble protein abundance ([1]; concentration: 1mM): 0.933 ± 0.052
- NP40-soluble protein abundance ([1]; concentration: 2mM): 0.897 ± 0.018
- NP40-soluble protein abundance ([1]; concentration: 4mM): 0.888 ± 0.029
- NP40-soluble protein abundance ([1]; concentration: 6mM): 0.935 ± 0.11
- NP40-soluble protein abundance ([1]; concentration: 8mM): 0.901 ± 0.046
- NP40-soluble protein abundance ([1]; concentration: 10mM): 0.889 ± 0.046
- NP40-soluble protein abundance ([2]; concentration: 1mM): 0.9965 ± 0.0073
- NP40-soluble protein abundance ([2]; concentration: 2mM): 1.02 ± 0.043
- NP40-soluble protein abundance ([2]; concentration: 4mM): 1.01 ± 0.038
- NP40-soluble protein abundance ([2]; concentration: 6mM): 0.975 ± 0.054
- NP40-soluble protein abundance ([2]; concentration: 8mM): 1.01 ± 0.014
- NP40-soluble protein abundance ([2]; concentration: 10mM): 0.988 ± 0.071

Source: the supplement of paper PMC6411743
